In PMC12782891:
No constants are given. Whether binding was seen depends on the method and setting. For part of these data: Binding seen in cells or lysates may run through a third protein. Some binding calls cover weakened binding; strength is not graded here. Sequences can lack the tags named with a protein. Each block holds one binder with its values, some of them ahead of it.

Tests used:
[1] = target: T1, GST-OsABI5 (rice (Oryza sativa L.)) (UniProt Q8RZ35); experiment: pull-down; purified His-OsSLR1 incubated with GST-OsABI5 or GST alone at 4°C for 3 h; pull-down with GST beads; immunoblot with anti-His and anti-GST; both purified
T1 sequence: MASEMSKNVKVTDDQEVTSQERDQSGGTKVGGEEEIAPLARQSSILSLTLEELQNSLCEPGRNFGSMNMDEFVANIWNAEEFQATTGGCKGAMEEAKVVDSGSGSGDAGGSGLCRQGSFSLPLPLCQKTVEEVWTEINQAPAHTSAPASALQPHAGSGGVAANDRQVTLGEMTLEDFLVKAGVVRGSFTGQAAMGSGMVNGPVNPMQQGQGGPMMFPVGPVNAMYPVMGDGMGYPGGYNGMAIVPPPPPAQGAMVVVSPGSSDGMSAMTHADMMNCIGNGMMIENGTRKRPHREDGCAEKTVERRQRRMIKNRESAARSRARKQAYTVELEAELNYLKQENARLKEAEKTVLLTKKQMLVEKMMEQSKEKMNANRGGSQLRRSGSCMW

[2] = target: T2, OsABI5-MYC (rice (Oryza sativa L.)) (UniProt Q8RZ35); experiment: co-IP; protein extracts of 2-d-old OsABI5-MYC or Nip seedlings; MYC-agarose beads, 4°C, 2 h; IP buffer 50 mmol/L Tris-HCl pH 7.5, 150 mmol/L NaCl, 5 mmol/L EDTA, 0.1% NP-40; blot with anti-MYC and anti-OsSLR1
T2 sequence: T1 sequence

[3] = target: T3, OsABI5-nYFP (rice (Oryza sativa L.)) (UniProt Q8RZ35); experiment: split reporter; BiFC with nYFP and cYFP fusions co-expressed in Nicotiana benthamiana leaves, 2 d after infiltration, confocal microscopy
T3 sequence: T1 sequence

binding [1]: binds
B1: His-OsSLR1 (protein, UniProt Q7G7J6 1-625)
chain: MKREYQEAGGSSGGGSSADMGSCKDKVMAGAAGEEEDVDELLAALGYKVRSSDMADVAQKLEQLEMAMGMGGVSAPGAADDGFVSHLATDTVHYNPSDLSSWVESMLSELNAPLPPIPPAPPAARHASTSSTVTGGGGSGFFELPAAADSSSSTYALRPISLPVVATADPSAADSARDTKRMRTGGGSTSSSSSSSSSLGGGASRGSVVEAAPPATQGAAAANAPAVPVVVVDTQEAGIRLVHALLACAEAVQQENFAAAEALVKQIPTLAASQGGAMRKVAAYFGEALARRVYRFRPADSTLLDAAFADLLHAHFYESCPYLKFAHFTANQAILEAFAGCHRVHVVDFGIKQGMQWPALLQALALRPGGPPSFRLTGVGPPQPDETDALQQVGWKLAQFAHTIRVDFQYRGLVAATLADLEPFMLQPEGEADANEEPEVIAVNSVFELHRLLAQPGALEKVLGTVHAVRPRIVTVVEQEANHNSGSFLDRFTESLHYYSTMFDSLEGGSSGQAELSPPAAGGGGGTDQVMSEVYLGRQICNVVACEGAERTERHETLGQWRNRLGRAGFEPVHLGSNAYKQASTLLALFAGGDGYRVEEKEGCLTLGWHTRPLIATSAWRVAAA

binding [2]: binds
B2: endogenous OsSLR1 (protein, UniProt Q7G7J6 1-625)
chain: B1 chain

binding [3]: binds
B3: OsSLR1-cYFP (protein, UniProt Q7G7J6 1-625)
chain: B1 chain
